Earlier results in patent EP2361081B1, “MULTI PORTION INTRA-ORAL DOSAGE FORM AND USE THEREOF” (McNeil AB, priority 2008, dated 2010).

Conditions: pKa value lying in interval 8 - 9,6; taken from Handbook of Chemistry and Physics, 85th edition

NCCC[C@H](N)C(=O)O [Ornithine]
pKa value (in interval 8 - 9,6): 8,78
